Laboratory results: the supplement of paper PMC5836539
± gives the standard deviation of the averaged measurements. Most values lie within the scatter of the assay; repeated measurements hardly agree.

Protein sequences, listed by entry. Tags and fused reporters are not part of them. Lines headed by an entry give the natural chain unless they say otherwise; changes in a name come on top.
UniProt Q86YS7: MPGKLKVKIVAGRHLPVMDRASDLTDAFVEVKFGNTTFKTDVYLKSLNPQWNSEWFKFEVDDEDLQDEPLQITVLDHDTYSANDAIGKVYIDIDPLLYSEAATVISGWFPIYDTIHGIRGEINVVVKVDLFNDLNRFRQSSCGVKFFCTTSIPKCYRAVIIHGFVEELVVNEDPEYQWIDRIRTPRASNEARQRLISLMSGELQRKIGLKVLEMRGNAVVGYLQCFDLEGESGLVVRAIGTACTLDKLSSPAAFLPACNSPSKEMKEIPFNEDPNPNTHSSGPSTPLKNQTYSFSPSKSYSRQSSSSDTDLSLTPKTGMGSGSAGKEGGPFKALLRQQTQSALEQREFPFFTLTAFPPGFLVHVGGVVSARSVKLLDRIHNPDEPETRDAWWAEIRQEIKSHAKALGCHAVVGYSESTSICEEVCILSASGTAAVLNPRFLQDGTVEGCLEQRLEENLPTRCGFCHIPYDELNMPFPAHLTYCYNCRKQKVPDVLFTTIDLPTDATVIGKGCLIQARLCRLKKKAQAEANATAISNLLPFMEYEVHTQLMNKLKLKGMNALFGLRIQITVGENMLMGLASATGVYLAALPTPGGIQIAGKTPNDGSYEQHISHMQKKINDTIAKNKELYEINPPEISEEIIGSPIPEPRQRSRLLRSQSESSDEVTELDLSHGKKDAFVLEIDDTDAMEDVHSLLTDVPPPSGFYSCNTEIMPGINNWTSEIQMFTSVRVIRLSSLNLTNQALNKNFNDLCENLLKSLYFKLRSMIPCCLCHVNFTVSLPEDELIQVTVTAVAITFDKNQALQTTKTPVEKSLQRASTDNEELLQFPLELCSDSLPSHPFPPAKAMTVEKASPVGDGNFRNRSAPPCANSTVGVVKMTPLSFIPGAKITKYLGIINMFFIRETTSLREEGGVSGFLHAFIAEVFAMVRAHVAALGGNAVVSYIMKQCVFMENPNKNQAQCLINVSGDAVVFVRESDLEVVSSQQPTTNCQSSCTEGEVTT
UniProt Q96B97, whole entry, looked up: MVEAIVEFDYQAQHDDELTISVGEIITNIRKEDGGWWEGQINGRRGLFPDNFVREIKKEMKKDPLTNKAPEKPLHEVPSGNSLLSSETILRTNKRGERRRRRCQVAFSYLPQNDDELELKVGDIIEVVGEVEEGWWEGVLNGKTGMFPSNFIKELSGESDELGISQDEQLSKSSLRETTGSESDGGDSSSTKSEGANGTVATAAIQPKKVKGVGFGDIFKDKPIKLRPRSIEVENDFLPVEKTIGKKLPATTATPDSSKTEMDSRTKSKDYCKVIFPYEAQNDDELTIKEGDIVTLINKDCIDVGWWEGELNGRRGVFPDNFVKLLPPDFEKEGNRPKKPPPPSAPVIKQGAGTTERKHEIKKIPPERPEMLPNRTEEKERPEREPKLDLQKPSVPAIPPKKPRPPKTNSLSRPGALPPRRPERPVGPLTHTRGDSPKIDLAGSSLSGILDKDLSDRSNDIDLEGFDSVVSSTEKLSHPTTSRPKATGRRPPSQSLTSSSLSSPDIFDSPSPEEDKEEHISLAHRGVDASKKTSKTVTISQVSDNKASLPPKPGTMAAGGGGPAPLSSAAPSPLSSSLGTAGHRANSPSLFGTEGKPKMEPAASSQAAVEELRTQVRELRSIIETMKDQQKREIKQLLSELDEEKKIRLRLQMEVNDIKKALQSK
UniProt Q96EZ8, whole entry, looked up: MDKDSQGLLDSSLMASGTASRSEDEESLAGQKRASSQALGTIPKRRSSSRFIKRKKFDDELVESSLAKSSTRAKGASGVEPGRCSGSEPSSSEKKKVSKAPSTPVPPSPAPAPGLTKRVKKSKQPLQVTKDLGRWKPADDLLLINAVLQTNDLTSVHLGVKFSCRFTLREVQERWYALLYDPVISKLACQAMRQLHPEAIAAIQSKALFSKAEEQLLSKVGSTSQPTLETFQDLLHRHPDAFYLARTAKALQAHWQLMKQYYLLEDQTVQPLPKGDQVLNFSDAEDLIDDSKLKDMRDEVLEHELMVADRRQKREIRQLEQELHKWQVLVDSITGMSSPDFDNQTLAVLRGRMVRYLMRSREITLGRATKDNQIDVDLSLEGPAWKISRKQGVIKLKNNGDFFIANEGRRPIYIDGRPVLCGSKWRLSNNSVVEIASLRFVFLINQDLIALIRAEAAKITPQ
UniProt Q96JG6: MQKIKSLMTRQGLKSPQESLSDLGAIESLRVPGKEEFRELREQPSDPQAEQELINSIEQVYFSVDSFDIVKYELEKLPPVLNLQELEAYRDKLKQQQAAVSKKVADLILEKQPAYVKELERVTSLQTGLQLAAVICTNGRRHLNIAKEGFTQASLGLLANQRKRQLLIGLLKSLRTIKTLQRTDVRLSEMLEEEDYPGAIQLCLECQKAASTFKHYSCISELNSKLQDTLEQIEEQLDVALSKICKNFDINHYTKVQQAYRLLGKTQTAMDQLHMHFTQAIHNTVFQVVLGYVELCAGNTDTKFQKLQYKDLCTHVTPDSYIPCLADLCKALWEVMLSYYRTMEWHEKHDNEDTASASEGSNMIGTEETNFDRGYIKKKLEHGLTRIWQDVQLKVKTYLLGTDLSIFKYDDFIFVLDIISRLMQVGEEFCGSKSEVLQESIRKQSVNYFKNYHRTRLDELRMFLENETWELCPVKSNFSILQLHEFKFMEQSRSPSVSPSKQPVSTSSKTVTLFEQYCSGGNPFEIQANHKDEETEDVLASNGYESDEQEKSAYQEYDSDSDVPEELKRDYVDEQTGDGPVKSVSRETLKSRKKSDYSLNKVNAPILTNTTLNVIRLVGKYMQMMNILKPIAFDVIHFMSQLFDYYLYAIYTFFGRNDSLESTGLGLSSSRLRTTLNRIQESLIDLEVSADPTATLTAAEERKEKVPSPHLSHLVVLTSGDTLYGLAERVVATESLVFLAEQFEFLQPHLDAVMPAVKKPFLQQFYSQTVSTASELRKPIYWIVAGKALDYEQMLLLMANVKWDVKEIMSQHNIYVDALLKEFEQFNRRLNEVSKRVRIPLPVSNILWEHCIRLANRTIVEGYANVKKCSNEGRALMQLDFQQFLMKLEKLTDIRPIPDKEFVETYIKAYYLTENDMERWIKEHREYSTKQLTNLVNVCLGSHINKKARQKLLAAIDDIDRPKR
UniProt Q96JM3: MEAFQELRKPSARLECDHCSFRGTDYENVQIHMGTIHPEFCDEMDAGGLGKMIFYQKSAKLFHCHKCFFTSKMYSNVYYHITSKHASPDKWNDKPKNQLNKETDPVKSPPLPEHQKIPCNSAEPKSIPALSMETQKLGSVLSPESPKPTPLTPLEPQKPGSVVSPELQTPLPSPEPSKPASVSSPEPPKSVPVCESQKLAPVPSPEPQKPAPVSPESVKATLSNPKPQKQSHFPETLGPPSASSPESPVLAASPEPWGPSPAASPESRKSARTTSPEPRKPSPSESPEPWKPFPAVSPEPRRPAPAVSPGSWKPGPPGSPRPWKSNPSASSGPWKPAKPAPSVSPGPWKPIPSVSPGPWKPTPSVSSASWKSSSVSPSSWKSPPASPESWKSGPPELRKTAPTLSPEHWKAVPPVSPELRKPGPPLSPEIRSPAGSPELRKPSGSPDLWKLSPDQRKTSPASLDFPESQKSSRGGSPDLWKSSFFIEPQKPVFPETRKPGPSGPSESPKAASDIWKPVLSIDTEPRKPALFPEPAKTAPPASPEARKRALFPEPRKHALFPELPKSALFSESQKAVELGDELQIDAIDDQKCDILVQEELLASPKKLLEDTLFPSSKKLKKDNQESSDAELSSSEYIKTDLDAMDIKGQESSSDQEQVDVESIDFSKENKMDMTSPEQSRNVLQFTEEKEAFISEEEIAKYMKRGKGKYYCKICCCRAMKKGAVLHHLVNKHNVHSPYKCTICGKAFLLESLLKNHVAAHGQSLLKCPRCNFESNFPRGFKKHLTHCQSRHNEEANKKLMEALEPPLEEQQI
UniProt Q96SB4, whole entry, looked up: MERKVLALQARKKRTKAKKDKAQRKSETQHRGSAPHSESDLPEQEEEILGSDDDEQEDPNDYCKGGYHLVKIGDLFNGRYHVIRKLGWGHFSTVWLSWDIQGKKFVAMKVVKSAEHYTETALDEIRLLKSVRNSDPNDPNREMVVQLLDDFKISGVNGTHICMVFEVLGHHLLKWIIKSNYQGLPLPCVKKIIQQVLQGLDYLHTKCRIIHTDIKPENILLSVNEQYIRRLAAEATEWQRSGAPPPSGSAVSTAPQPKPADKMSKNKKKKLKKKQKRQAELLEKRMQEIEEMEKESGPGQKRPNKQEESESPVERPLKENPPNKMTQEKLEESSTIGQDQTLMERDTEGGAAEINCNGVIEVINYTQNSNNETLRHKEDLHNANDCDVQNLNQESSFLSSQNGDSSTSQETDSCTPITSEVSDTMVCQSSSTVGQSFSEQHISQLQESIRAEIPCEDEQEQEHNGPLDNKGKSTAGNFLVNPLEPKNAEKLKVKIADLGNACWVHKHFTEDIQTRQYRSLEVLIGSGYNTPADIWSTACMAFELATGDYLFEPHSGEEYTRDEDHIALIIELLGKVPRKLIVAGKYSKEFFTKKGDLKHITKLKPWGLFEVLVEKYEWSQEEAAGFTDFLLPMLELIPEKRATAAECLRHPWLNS
UniProt Q641Q2, whole entry, looked up: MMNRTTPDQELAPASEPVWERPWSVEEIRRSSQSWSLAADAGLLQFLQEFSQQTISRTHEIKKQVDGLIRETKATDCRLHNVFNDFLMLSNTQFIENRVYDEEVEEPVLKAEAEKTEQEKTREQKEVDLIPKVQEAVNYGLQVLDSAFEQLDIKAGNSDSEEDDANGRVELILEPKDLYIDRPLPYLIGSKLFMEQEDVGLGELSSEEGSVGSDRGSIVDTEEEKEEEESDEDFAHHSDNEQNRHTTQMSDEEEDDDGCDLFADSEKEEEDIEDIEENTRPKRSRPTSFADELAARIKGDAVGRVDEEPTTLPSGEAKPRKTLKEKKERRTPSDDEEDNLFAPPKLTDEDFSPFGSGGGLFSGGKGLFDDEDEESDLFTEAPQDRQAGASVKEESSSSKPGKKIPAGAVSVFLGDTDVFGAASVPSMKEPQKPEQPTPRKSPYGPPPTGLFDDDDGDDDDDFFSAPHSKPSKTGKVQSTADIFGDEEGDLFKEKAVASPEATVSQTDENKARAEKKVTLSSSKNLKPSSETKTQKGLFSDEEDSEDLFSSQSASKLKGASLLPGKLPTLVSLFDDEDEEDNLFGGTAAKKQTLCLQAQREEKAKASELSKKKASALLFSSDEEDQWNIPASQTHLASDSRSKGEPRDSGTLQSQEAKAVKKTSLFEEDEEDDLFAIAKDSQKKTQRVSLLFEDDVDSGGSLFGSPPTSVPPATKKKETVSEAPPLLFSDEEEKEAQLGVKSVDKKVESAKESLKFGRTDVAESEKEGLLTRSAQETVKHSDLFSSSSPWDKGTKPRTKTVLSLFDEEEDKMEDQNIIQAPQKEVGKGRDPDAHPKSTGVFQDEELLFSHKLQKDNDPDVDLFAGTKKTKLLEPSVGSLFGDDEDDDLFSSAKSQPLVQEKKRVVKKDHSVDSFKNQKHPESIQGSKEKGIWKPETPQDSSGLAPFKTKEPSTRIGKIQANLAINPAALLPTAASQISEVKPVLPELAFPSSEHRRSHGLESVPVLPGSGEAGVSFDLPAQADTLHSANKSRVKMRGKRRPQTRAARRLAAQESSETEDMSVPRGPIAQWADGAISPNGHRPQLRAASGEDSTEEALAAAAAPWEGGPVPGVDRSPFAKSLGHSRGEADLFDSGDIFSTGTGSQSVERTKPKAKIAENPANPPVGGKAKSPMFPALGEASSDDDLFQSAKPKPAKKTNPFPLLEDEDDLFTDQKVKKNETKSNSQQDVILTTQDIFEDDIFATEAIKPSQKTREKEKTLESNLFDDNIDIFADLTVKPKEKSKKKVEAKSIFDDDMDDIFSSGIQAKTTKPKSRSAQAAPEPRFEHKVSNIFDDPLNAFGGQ

Compound: CC[C@@H](C)Nc1cc(C(=O)N[C@H]2C[C@H]3CC[C@@H](C2)N3c2ccc(C(=O)C3CC3)cn2)c(C)cc1C(N)=O [XL888]
Experiment: phosphopeptide melting temperature shift (XL888 minus DMSO); higher = stabilised by drug treatment
Conditions: 100 µM; treatment time 2 h; layout: intact cells; SK-Mel 28
Description: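 Phospho-TPP in intact SK-Mel 28 cells treated with 100 uM XL888 or DMSO for 2 h, heated at 10 temperatures (37-67 C) for 3 min, soluble fraction TMT10plex-labelled and TiO2 phospho-enriched. Melting curves were fitted per phosphopeptide; the value is the melting point difference (drug minus vehicle) in each of two biological replicates.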

For “UniProt Q86YP4-2_phosphosite_100 (phosphosite position: 100)”, which “phosphopeptide melting temperature shift” value is on record?
Its value is 1.45 °C.

Which “phosphopeptide melting temperature shift” value does the source give for “UniProt Q86YP4-2_phosphosite_107 (phosphosite position: 107)” here?
Its value is 1.05 °C.

How did the “phosphopeptide melting temperature shift” value turn out when “UniProt Q86YS7_phosphosite_280 (phosphosite position: 280)” was run?
The value was 0.223 ± 0.13 °C.

For “UniProt Q86YS7_phosphosite_281 (phosphosite position: 281)”, which “phosphopeptide melting temperature shift” value is on record?
Its value is 0.61 ± 0.31 °C.

How did the “phosphopeptide melting temperature shift” value turn out when “UniProt Q86YS7_phosphosite_284 (phosphosite position: 284)” was run?
The value was 0.886 ± 0.69 °C.

With “UniProt Q86YS7_phosphosite_285 (phosphosite position: 285)” as the target, how does the “phosphopeptide melting temperature shift” value read?
The value was -0.0189 ± 0.59 °C.

“UniProt Q86YS7_phosphosite_659 (phosphosite position: 659)” was tested. Which “phosphopeptide melting temperature shift” value did it give?
The value was -0.132 °C.

Which “phosphopeptide melting temperature shift” value does the source give for “UniProt Q86YS7_phosphosite_661 (phosphosite position: 661)” here?
The value was 0.549 °C.

How did the “phosphopeptide melting temperature shift” value turn out when “UniProt Q86YS7_phosphosite_662 (phosphosite position: 662)” was run?
Its value is -0.15 °C.

With “UniProt Q96B23-2_phosphosite_69 (phosphosite position: 69)” as the target, how does the “phosphopeptide melting temperature shift” value read?
The value was 0.598 °C.

“UniProt Q96B97-2_phosphosite_193 (phosphosite position: 193)” was tested. Which “phosphopeptide melting temperature shift” value did it give?
The value was -0.075 ± 1.2 °C.

“UniProt Q96B97-2_phosphosite_472 (phosphosite position: 472)” was tested. Which “phosphopeptide melting temperature shift” value did it give?
The value was -0.0312 ± 2 °C.

For “UniProt Q96B97-2_phosphosite_474 (phosphosite position: 474)”, which “phosphopeptide melting temperature shift” value is on record?
Its value is 0.219 ± 0.3 °C.

With “UniProt Q96BR1-2_phosphosite_126 (phosphosite position: 126)” as the target, how does the “phosphopeptide melting temperature shift” value read?
Its value is 0.335 ± 0.36 °C.

With “UniProt Q96BY6-3_phosphosite_1251 (phosphosite position: 1251)” as the target, how does the “phosphopeptide melting temperature shift” value read?
Its value is 0.0629 °C.

With “UniProt Q96D71-3_phosphosite_708 (phosphosite position: 708)” as the target, how does the “phosphopeptide melting temperature shift” value read?
Its value is 0.93 ± 0.7 °C.

With “UniProt Q96EZ8-4_phosphosite_91 (phosphosite position: 91)” as the target, how does the “phosphopeptide melting temperature shift” value read?
Its value is 4.87 °C.

Which “phosphopeptide melting temperature shift” value does the source give for “UniProt Q96F24-3_phosphosite_103 (phosphosite position: 103)” here?
The value was 6.57 °C.

With “UniProt Q96F45-3_phosphosite_102 (phosphosite position: 102)” as the target, how does the “phosphopeptide melting temperature shift” value read?
The value was 3.38 ± 1.2 °C.

“UniProt Q96FT9-3_phosphosite_78 (phosphosite position: 78)” was tested. Which “phosphopeptide melting temperature shift” value did it give?
The value was 4.62 °C.

Which “phosphopeptide melting temperature shift” value does the source give for “UniProt Q96G74-2_phosphosite_40 (phosphosite position: 40)” here?
The value was -0.204 °C.

With “UniProt Q96G74-2_phosphosite_479 (phosphosite position: 479)” as the target, how does the “phosphopeptide melting temperature shift” value read?
The value was 2.32 °C.

With “UniProt Q96GP6-2_phosphosite_648 (phosphosite position: 648)” as the target, how does the “phosphopeptide melting temperature shift” value read?
The value was 0.486 °C.

For “UniProt Q96HR8-2_phosphosite_315 (phosphosite position: 315)”, which “phosphopeptide melting temperature shift” value is on record?
The value was -0.485 ± 1.4 °C.

Which “phosphopeptide melting temperature shift” value does the source give for “UniProt Q96JG6_phosphosite_561 (phosphosite position: 561)” here?
The value was 0.344 ± 0.39 °C.

“UniProt Q96JM3_phosphosite_204 (phosphosite position: 204)” was tested. Which “phosphopeptide melting temperature shift” value did it give?
Its value is 5.13 ± 0.16 °C.

With “UniProt Q96JM3_phosphosite_214 (phosphosite position: 214)” as the target, how does the “phosphopeptide melting temperature shift” value read?
The value was 5.13 ± 0.16 °C.

How did the “phosphopeptide melting temperature shift” value turn out when “UniProt Q96JM3_phosphosite_445 (phosphosite position: 445)” was run?
The value was 3.91 °C.

For “UniProt Q96JM3_phosphosite_452 (phosphosite position: 452)”, which “phosphopeptide melting temperature shift” value is on record?
Its value is 3.91 °C.

For “UniProt Q96JM3_phosphosite_476 (phosphosite position: 476)”, which “phosphopeptide melting temperature shift” value is on record?
Its value is 1.98 ± 0.71 °C.

Which “phosphopeptide melting temperature shift” value does the source give for “UniProt Q96K76-2_phosphosite_744 (phosphosite position: 744)” here?
Its value is 3.2 °C.

Which “phosphopeptide melting temperature shift” value does the source give for “UniProt Q96MU7-2_phosphosite_308 (phosphosite position: 308)” here?
Its value is 1.73 °C.

Which “phosphopeptide melting temperature shift” value does the source give for “UniProt Q96MU7-2_phosphosite_406 (phosphosite position: 406)” here?
Its value is -1.69 °C.

For “UniProt Q96N67-2_phosphosite_180 (phosphosite position: 180)”, which “phosphopeptide melting temperature shift” value is on record?
Its value is 5.38 °C.

How did the “phosphopeptide melting temperature shift” value turn out when “UniProt Q96N67-2_phosphosite_439 (phosphosite position: 439)” was run?
The value was 5.5096 ± 1e-05 °C.

“UniProt Q96N67-2_phosphosite_452 (phosphosite position: 452)” was tested. Which “phosphopeptide melting temperature shift” value did it give?
The value was 1.95 °C.

“UniProt Q96N67-2_phosphosite_900 (phosphosite position: 900)” was tested. Which “phosphopeptide melting temperature shift” value did it give?
Its value is 2.71 °C.

With “UniProt Q96N67-2_phosphosite_946 (phosphosite position: 946)” as the target, how does the “phosphopeptide melting temperature shift” value read?
The value was 1.39 °C.

“UniProt Q96N67-2_phosphosite_1423 (phosphosite position: 1423)” was tested. Which “phosphopeptide melting temperature shift” value did it give?
Its value is -2.0888 ± 5.8e-06 °C.

Which “phosphopeptide melting temperature shift” value does the source give for “UniProt Q96NE9-3_phosphosite_186 (phosphosite position: 186)” here?
The value was 0.745 °C.

For “UniProt Q96P16-3_phosphosite_120 (phosphosite position: 120)”, which “phosphopeptide melting temperature shift” value is on record?
The value was 3.95 °C.

For “UniProt Q96QB1-4_phosphosite_12 (phosphosite position: 12)”, which “phosphopeptide melting temperature shift” value is on record?
Its value is 0.461 ± 0.56 °C.

With “UniProt Q96QB1-4_phosphosite_15 (phosphosite position: 15)” as the target, how does the “phosphopeptide melting temperature shift” value read?
The value was 0.356 ± 0.71 °C.

Which “phosphopeptide melting temperature shift” value does the source give for “UniProt Q96QU8-2_phosphosite_190 (phosphosite position: 190)” here?
The value was 0.912 °C.

Which “phosphopeptide melting temperature shift” value does the source give for “UniProt Q96S38-2_phosphosite_411 (phosphosite position: 411)” here?
The value was -0.445 °C.

With “UniProt Q96S38-2_phosphosite_415 (phosphosite position: 415)” as the target, how does the “phosphopeptide melting temperature shift” value read?
The value was -0.445 °C.

Which “phosphopeptide melting temperature shift” value does the source give for “UniProt Q96S53-3_phosphosite_427 (phosphosite position: 427)” here?
The value was 0.699 ± 0.29 °C.

Which “phosphopeptide melting temperature shift” value does the source give for “UniProt Q96S53-3_phosphosite_431 (phosphosite position: 431)” here?
The value was 0.699 ± 0.29 °C.

For “UniProt Q96S55-2_phosphosite_116 (phosphosite position: 116)”, which “phosphopeptide melting temperature shift” value is on record?
Its value is 2.05 °C.

“UniProt Q96SB4-4_phosphosite_35 (phosphosite position: 35)” was tested. Which “phosphopeptide melting temperature shift” value did it give?
The value was 2.02 ± 1 °C.

How did the “phosphopeptide melting temperature shift” value turn out when “UniProt Q96TA1-2_phosphosite_628 (phosphosite position: 628)” was run?
Its value is 0.219 ± 0.41 °C.

For “UniProt Q147X3-2_phosphosite_162 (phosphosite position: 162)”, which “phosphopeptide melting temperature shift” value is on record?
The value was -0.0291 °C.

With “UniProt Q00613-2_phosphosite_303 (phosphosite position: 303)” as the target, how does the “phosphopeptide melting temperature shift” value read?
Its value is 2.01 ± 1.1 °C.

How did the “phosphopeptide melting temperature shift” value turn out when “UniProt Q00613-2_phosphosite_307 (phosphosite position: 307)” was run?
The value was 2.01 ± 1.1 °C.

For “UniProt Q00613-2_phosphosite_314 (phosphosite position: 314)”, which “phosphopeptide melting temperature shift” value is on record?
Its value is 1.22 °C.

How did the “phosphopeptide melting temperature shift” value turn out when “UniProt Q00613-2_phosphosite_363 (phosphosite position: 363)” was run?
Its value is 2.51 ± 0.18 °C.

Which “phosphopeptide melting temperature shift” value does the source give for “UniProt Q641Q2-2_phosphosite_352 (phosphosite position: 352)” here?
Its value is 2.27 °C.
